{"source": "PubChem BioAssay AID504764 (Drosophila RNAi Screening Center, 2011)", "aim": "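Knock-downs that raise or lower a Notch target reporter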 (primary screen)", "system": "Drosophila Kc167 cells", "knock-down reagent": "long dsRNA against Drosophila genes", "time to read-out": "about 5 days (4 days dsRNA, then 24 h after transfection)", "challenge": "transfection of constitutively active membrane-tethered Notch lacking the extracellular domain, read 24 h later", "measurement": "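Light from a Notch-responsive E(spl)m3 luciferase reporter under active Notch, with control-promoter and no-Notch reporter wells to normalise; raw counts from paired wells a and b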", "scale": "induced reporter light, run 1, well a and induced reporter light, run 1, well b: higher = more light from the Notch target reporter with active Notch; control promoter light, run 1, well a and control promoter light, run 1, well b: higher = more light from the viral control promoter (cell number, transfection, viability); uninduced reporter light, run 1, well a: higher = more light from the Notch target reporter without active Notch", "active means": "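Wells with low control signal or poorly matching duplicates excluded; duplicates averaged; per source plate, z beyond ±2 for induced/control log2 ratio or beyond ±1.8 for induced/uninduced marks a hit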", "meaning of the calls": "active = modifier hit (raised or lowered Notch signal); inactive = not a hit", "note": "The deposit covers about 22,000 reagents; below is an unselected part of those with a known target gene and a result. Of all reagents, 403 (1.9%) got an active call. 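Unnormalised raw counts per well; ratio z-scores behind the hit calls and whether each hit raises or lowers signal are not deposited.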 Not given: the amount of reagent."}
{"target": "SA2 (Stromalin 2)", "dsRNA": "DRSC08385", "induced reporter light, run 1, well a": 1.65e5, "induced reporter light, run 1, well b": 1.05e5, "control promoter light, run 1, well a": 1.71e5, "control promoter light, run 1, well b": 2.26e5, "uninduced reporter light, run 1, well a": 6910, "Call": "inactive"}
{"target": "Nrx-1 (Neurexin 1)", "dsRNA": "DRSC16184", "induced reporter light, run 1, well a": 1.79e5, "induced reporter light, run 1, well b": 1.87e5, "control promoter light, run 1, well a": 2.44e5, "control promoter light, run 1, well b": 2.34e5, "uninduced reporter light, run 1, well a": 13580, "Call": "inactive"}
{"target": "CG13474", "dsRNA": "DRSC10018", "induced reporter light, run 1, well a": 2.00e5, "induced reporter light, run 1, well b": 2.20e5, "control promoter light, run 1, well a": 2.81e5, "control promoter light, run 1, well b": 2.11e5, "uninduced reporter light, run 1, well a": 6770, "Call": "inactive"}
{"target": "mbm (mushroom body miniature)", "dsRNA": "DRSC00319", "induced reporter light, run 1, well a": 2.11e5, "induced reporter light, run 1, well b": 2.00e5, "control promoter light, run 1, well a": 2.12e5, "control promoter light, run 1, well b": 2.05e5, "uninduced reporter light, run 1, well a": 18440, "Call": "inactive"}
{"target": "Clbn (Caliban)", "dsRNA": "DRSC14404", "induced reporter light, run 1, well a": 1.61e5, "induced reporter light, run 1, well b": 1.63e5, "control promoter light, run 1, well a": 2.25e5, "control promoter light, run 1, well b": 1.84e5, "uninduced reporter light, run 1, well a": 13850, "Call": "inactive"}
{"target": "Send1 (Spermathecal endopeptidase 1)", "dsRNA": "DRSC00482", "induced reporter light, run 1, well a": 96635, "induced reporter light, run 1, well b": 1.15e5, "control promoter light, run 1, well a": 73455, "control promoter light, run 1, well b": 40790, "uninduced reporter light, run 1, well a": 8950, "Call": "inactive"}
{"target": "Trs20 (TRAPP subunit 20)", "dsRNA": "DRSC10489", "induced reporter light, run 1, well a": 1.33e5, "induced reporter light, run 1, well b": 1.60e5, "control promoter light, run 1, well a": 2.07e5, "control promoter light, run 1, well b": 1.87e5, "uninduced reporter light, run 1, well a": 10232, "Call": "inactive"}

Continued (2 carried over from the part before).
{"target": "Send1 (Spermathecal endopeptidase 1)", "dsRNA": "DRSC00482", "induced reporter light, run 1, well a": 96635, "induced reporter light, run 1, well b": 1.15e5, "control promoter light, run 1, well a": 73455, "control promoter light, run 1, well b": 40790, "uninduced reporter light, run 1, well a": 8950, "Call": "inactive"}
{"target": "Trs20 (TRAPP subunit 20)", "dsRNA": "DRSC10489", "induced reporter light, run 1, well a": 1.33e5, "induced reporter light, run 1, well b": 1.60e5, "control promoter light, run 1, well a": 2.07e5, "control promoter light, run 1, well b": 1.87e5, "uninduced reporter light, run 1, well a": 10232, "Call": "inactive"}
{"target": "CG15071", "dsRNA": "DRSC06504", "induced reporter light, run 1, well a": 35965, "induced reporter light, run 1, well b": 38965, "control promoter light, run 1, well a": 42775, "control promoter light, run 1, well b": 42565, "uninduced reporter light, run 1, well a": 4610, "Call": "inactive"}
{"target": "Elp3 (Elongator complex protein 3)", "dsRNA": "DRSC00448", "induced reporter light, run 1, well a": 1.22e5, "induced reporter light, run 1, well b": 97365, "control promoter light, run 1, well a": 1.46e5, "control promoter light, run 1, well b": 1.23e5, "uninduced reporter light, run 1, well a": 7745, "Call": "inactive"}
{"target": "Wdfy2 (WD repeat and FYVE domain containing 2)", "dsRNA": "DRSC02822", "induced reporter light, run 1, well a": 2.36e5, "induced reporter light, run 1, well b": 2.62e5, "control promoter light, run 1, well a": 1.78e5, "control promoter light, run 1, well b": 1.82e5, "uninduced reporter light, run 1, well a": 17845, "Call": "inactive"}
{"target": "CG15784", "dsRNA": "DRSC18090", "induced reporter light, run 1, well a": 99225, "induced reporter light, run 1, well b": 94165, "control promoter light, run 1, well a": 2.50e5, "control promoter light, run 1, well b": 3.10e5, "uninduced reporter light, run 1, well a": 10860, "Call": "active"}
{"target": "CG42686 (retired record)", "dsRNA": "DRSC15247", "induced reporter light, run 1, well a": 9565, "induced reporter light, run 1, well b": 8355, "control promoter light, run 1, well a": 6785, "control promoter light, run 1, well b": 6530, "uninduced reporter light, run 1, well a": 2500, "Call": "inactive"}
{"target": "CG42686 (retired record)", "dsRNA": "DRSC15248", "induced reporter light, run 1, well a": 1.62e5, "induced reporter light, run 1, well b": 1.57e5, "control promoter light, run 1, well a": 2.24e5, "control promoter light, run 1, well b": 1.93e5, "uninduced reporter light, run 1, well a": 14205, "Call": "inactive"}
